Results are given in words; binding and its absence hold for the method and conditions named. In cells and extracts the contact can be indirect. Some entries that bind do so weakly or less than the wild type. For some assays here: Where a sequence is shown, tags or fusion partners need not be part of it.
Legend:
[1] = target: T1, GST-tagged N-terminal ArfGAP domain of human GIT2, residues 1-124 (GST-GIT2(1-124)) (human) (UniProt Q14161); test: pull-down; GST-fusion proteins or GST alone immobilised on Glutathione-Sepharose and incubated with whole-cell extracts of U-251 MG cells; immunoblot; only the target purified
T1 sequence: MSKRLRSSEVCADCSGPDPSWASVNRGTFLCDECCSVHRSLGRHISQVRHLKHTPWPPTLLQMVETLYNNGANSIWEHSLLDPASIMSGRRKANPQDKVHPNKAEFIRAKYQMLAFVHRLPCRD

The chains behind the UniProt entries cited, without tags or fusion partners.
UniProt Q9BSJ2: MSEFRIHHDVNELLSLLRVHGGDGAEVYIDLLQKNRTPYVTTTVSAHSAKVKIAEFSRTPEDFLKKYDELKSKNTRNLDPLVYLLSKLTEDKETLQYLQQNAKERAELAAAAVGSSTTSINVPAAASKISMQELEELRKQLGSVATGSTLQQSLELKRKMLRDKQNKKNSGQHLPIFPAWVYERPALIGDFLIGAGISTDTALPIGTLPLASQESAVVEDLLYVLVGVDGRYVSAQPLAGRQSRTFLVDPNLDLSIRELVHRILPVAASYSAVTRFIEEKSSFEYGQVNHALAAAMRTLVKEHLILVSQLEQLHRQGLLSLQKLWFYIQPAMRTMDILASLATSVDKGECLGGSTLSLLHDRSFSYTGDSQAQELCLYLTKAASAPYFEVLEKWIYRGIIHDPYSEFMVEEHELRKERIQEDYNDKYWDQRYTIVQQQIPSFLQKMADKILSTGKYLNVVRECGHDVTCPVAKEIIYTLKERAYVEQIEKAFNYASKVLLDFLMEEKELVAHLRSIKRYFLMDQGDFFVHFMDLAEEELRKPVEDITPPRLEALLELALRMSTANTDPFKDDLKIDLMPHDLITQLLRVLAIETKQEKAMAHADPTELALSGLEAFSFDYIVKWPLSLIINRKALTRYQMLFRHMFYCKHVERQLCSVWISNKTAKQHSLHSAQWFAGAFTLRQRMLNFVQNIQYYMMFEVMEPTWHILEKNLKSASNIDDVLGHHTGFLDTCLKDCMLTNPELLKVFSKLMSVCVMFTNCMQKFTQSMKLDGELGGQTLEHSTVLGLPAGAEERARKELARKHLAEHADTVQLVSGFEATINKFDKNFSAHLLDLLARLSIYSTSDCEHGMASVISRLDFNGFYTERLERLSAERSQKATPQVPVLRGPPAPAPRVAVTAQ
UniProt Q9UGJ1: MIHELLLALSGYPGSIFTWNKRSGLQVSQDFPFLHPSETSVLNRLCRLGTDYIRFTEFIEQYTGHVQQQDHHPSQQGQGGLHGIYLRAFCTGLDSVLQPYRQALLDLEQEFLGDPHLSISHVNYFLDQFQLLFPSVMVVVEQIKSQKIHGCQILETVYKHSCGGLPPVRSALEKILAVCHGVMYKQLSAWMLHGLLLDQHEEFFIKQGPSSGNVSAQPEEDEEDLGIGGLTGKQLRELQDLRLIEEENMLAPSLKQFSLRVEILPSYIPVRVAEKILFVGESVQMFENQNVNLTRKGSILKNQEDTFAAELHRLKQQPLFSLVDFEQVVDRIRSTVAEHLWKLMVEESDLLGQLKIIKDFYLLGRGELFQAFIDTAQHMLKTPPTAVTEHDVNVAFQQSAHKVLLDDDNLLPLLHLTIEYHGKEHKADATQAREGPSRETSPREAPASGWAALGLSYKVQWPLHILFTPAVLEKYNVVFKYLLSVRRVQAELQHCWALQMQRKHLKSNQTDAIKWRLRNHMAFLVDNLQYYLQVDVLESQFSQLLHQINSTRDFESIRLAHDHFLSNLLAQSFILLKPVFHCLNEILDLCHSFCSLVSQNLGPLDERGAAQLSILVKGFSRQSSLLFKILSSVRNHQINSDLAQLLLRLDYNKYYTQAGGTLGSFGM

[2] = target: T2, C-terminally mNeonGreen-tagged human GIT1, transcript variant 1 (GIT1-NG) (human) (UniProt Q9Y2X7); test: co-IP; whole-cell extracts of cells expressing GIT1-NG, GIT2-NG or NG alone; precipitation with anti-NG Ab or, reciprocally, anti-γ-tubulin Ab on protein A beads; immunoblot
T2 sequence: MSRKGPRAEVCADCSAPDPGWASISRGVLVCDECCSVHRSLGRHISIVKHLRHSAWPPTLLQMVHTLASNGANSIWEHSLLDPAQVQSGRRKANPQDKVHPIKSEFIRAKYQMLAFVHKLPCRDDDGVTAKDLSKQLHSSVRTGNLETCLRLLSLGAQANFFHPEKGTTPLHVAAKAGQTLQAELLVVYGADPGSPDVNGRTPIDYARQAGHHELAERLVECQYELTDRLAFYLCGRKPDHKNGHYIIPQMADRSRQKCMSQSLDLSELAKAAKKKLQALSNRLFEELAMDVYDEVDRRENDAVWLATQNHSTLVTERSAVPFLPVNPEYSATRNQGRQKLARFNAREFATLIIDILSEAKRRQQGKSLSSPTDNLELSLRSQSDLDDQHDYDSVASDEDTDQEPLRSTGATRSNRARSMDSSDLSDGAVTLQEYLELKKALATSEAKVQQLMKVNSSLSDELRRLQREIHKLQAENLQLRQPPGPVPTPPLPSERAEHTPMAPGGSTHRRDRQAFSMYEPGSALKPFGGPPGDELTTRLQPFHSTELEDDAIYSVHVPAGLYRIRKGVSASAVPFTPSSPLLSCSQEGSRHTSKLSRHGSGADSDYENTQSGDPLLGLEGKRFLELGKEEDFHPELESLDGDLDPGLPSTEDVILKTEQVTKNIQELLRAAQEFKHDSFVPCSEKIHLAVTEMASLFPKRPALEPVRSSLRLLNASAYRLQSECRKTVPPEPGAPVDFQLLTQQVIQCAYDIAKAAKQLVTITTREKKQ

[3] = target: T3, C-terminally mNeonGreen-tagged human GIT2, transcript variant 1 (GIT2-NG) (human) (UniProt Q14161); test: as above
T3 sequence: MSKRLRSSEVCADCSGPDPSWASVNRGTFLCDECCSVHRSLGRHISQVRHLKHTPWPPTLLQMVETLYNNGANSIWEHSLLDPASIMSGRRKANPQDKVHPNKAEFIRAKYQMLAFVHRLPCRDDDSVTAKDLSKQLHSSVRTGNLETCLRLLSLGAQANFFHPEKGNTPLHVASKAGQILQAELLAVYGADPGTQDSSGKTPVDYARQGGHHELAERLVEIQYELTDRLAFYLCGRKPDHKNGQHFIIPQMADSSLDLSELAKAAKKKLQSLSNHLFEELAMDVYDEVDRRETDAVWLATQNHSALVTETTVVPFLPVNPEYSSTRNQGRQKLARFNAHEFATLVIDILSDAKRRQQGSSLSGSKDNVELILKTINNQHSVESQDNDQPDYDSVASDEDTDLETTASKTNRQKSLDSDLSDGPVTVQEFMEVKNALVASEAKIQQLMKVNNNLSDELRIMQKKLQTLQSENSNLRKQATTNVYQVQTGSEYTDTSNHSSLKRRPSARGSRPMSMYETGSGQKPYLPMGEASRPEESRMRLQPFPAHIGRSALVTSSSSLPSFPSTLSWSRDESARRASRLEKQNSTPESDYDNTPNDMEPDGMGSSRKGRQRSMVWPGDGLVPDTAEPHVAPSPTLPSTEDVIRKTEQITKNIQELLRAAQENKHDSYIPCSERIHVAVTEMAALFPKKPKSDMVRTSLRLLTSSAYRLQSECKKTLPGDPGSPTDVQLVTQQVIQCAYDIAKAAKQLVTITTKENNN

[4] = target: T4, N-terminally GST-tagged full-length human GIT1 (GST-GIT1) (human) (UniProt Q9Y2X7); test: pull-down; GST-fusion proteins or GST alone immobilised on Glutathione-Sepharose and incubated with whole-cell extracts of U-251 MG cells; immunoblot; only the target purified
T4 sequence: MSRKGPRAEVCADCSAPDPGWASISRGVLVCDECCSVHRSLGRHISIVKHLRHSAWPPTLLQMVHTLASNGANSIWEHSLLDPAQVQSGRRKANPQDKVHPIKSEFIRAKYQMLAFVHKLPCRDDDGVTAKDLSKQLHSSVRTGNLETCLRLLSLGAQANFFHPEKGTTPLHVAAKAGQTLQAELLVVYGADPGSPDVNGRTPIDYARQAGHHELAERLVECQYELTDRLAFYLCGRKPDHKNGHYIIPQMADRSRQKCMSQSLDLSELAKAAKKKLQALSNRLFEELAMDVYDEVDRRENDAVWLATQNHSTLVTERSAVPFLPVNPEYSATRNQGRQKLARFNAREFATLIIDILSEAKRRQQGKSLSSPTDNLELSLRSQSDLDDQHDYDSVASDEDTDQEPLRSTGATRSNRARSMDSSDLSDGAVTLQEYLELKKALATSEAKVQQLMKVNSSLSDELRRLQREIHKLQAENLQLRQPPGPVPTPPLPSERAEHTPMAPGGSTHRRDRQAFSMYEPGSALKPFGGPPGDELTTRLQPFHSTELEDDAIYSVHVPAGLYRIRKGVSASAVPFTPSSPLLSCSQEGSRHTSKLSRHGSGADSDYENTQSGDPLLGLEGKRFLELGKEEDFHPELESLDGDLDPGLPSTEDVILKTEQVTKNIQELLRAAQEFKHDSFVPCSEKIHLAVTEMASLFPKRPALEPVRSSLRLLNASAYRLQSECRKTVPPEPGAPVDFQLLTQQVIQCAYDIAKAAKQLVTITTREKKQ

[5] = target: T5, N-terminally GST-tagged full-length human GIT2 (tv1) (GST-GIT2) (human) (UniProt Q14161); test: as above
T5 sequence: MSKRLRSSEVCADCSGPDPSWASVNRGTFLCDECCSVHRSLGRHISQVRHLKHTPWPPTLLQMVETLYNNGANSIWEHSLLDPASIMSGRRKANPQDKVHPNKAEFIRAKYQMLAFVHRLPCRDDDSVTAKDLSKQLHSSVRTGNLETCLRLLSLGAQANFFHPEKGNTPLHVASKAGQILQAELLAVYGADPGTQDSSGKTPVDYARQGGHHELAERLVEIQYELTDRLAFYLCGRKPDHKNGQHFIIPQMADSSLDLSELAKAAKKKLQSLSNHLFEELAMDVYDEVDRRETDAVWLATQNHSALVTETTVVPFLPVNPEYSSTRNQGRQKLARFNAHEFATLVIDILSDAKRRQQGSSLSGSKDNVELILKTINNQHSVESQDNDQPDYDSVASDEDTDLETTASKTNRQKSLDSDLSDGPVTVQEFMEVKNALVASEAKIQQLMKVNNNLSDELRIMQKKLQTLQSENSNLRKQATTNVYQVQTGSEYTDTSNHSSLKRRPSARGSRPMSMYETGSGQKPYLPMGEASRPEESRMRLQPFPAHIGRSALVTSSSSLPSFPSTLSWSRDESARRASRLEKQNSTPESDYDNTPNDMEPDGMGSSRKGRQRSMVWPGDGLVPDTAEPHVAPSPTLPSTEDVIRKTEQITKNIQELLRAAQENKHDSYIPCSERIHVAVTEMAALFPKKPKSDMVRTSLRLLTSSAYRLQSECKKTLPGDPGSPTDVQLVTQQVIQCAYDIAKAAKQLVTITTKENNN

[6] = target: T6, G protein-coupled receptor kinase-interacting protein 1 (GIT1), endogenous (human (endogenous in U-251 MG)) (UniProt Q9Y2X7); test: co-IP; whole-cell extracts of U-251 MG cells (HEPES buffer with 1% NP-40, protease and phosphatase inhibitors) incubated with protein A beads preloaded with rabbit Ab to GIT1, GIT2 or PKCα or mAb TU-31 to γ-tubulin; immunoblot; endogenous proteins
T6 sequence: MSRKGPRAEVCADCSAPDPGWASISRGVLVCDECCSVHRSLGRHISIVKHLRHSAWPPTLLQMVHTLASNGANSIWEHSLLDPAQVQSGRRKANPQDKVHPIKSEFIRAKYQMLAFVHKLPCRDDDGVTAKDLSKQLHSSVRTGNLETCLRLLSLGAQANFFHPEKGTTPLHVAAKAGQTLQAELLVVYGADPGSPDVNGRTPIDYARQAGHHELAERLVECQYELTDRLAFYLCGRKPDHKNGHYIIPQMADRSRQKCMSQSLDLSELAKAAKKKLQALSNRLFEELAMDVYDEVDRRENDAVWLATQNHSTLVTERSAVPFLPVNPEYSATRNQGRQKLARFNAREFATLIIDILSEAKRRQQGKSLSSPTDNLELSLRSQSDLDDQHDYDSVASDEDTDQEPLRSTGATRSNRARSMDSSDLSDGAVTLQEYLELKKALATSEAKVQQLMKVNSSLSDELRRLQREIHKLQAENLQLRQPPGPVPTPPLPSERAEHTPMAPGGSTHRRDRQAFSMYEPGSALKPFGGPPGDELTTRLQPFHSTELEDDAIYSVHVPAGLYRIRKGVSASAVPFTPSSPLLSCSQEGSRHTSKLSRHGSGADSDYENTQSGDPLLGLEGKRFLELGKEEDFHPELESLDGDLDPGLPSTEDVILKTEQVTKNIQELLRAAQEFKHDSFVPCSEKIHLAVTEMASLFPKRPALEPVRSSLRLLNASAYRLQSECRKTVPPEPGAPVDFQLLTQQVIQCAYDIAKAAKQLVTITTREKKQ

[7] = target: T7, G protein-coupled receptor kinase-interacting protein 2 (GIT2), endogenous (human (endogenous in U-251 MG)) (UniProt Q14161); test: as above
T7 sequence: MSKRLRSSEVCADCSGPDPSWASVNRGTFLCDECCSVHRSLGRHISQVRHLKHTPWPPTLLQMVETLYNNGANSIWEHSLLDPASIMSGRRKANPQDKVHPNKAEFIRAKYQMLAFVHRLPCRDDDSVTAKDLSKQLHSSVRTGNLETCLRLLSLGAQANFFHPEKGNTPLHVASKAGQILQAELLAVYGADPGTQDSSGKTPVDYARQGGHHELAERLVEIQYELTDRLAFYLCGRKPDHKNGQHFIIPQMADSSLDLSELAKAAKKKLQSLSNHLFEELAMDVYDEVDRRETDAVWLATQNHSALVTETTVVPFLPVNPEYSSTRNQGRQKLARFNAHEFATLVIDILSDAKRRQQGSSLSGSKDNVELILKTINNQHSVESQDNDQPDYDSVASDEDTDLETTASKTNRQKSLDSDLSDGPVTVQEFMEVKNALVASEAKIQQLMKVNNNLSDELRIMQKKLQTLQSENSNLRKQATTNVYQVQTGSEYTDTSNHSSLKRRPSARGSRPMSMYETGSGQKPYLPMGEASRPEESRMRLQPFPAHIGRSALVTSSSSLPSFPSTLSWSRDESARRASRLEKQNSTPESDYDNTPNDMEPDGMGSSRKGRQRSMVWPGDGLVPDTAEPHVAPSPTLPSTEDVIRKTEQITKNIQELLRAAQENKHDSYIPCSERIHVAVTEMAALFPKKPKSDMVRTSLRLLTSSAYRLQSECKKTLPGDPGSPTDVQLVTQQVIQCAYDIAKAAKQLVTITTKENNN

[8] = target: protein kinase C alpha (PKCα), endogenous (human (endogenous in U-251 MG)) (UniProt P17252); test: as above

Measured: binding

protein kinase C alpha (PKCα), endogenous (from UniProt P17252 1-672) (enzyme)
binds: [1]

γ-tubulin complex protein 2 (GCP2), endogenous (from UniProt Q9BSJ2 1-902)
not listed: [1] | [8]
binds: all other assays above

γ-tubulin complex protein 4 (GCP4), endogenous (from UniProt Q9UGJ1 1-667)
not listed: [1] | [8]
binds: all other assays above

B1: G protein-coupled receptor kinase-interacting protein 2 (GIT2), endogenous (protein, UniProt Q14161 1-759)
chain: MSKRLRSSEVCADCSGPDPSWASVNRGTFLCDECCSVHRSLGRHISQVRHLKHTPWPPTLLQMVETLYNNGANSIWEHSLLDPASIMSGRRKANPQDKVHPNKAEFIRAKYQMLAFVHRLPCRDDDSVTAKDLSKQLHSSVRTGNLETCLRLLSLGAQANFFHPEKGNTPLHVASKAGQILQAELLAVYGADPGTQDSSGKTPVDYARQGGHHELAERLVEIQYELTDRLAFYLCGRKPDHKNGQHFIIPQMADSSLDLSELAKAAKKKLQSLSNHLFEELAMDVYDEVDRRETDAVWLATQNHSALVTETTVVPFLPVNPEYSSTRNQGRQKLARFNAHEFATLVIDILSDAKRRQQGSSLSGSKDNVELILKTINNQHSVESQDNDQPDYDSVASDEDTDLETTASKTNRQKSLDSDLSDGPVTVQEFMEVKNALVASEAKIQQLMKVNNNLSDELRIMQKKLQTLQSENSNLRKQATTNVYQVQTGSEYTDTSNHSSLKRRPSARGSRPMSMYETGSGQKPYLPMGEASRPEESRMRLQPFPAHIGRSALVTSSSSLPSFPSTLSWSRDESARRASRLEKQNSTPESDYDNTPNDMEPDGMGSSRKGRQRSMVWPGDGLVPDTAEPHVAPSPTLPSTEDVIRKTEQITKNIQELLRAAQENKHDSYIPCSERIHVAVTEMAALFPKKPKSDMVRTSLRLLTSSAYRLQSECKKTLPGDPGSPTDVQLVTQQVIQCAYDIAKAAKQLVTITTKENNN
binds: [8]
